According to patent US20110105397A1 (priority 2009, published 2011):

Experiment: general procedure: Fmoc solid-phase peptide synthesis; NovaSyn TGR; HBTU/NMM
Conditions: whole synthesis, scale 0.1 mmol

Q: For “TKFTLSLDVPTNIMNLLFNIAKAKNLRCQAAANAHLMAQI-NH2”, which crude yield is on record?
A: The crude yield was 92%.
